Some of the results follow.
Key:
Experiment in all cases: log2 fold change, soluble protein after heating vs DMSO (PISA); higher = thermal stabilisation; K562 cells, 10 uM, 30 min; active = over 0.2 and 3.5 SD of the protein, either way, in both replicates (recomputed)
[1] = compound: NC(=O)Nc1cc(-c2cccc(F)c2)sc1C(=O)N[C@H]1CCCNC1
Procedure, shortened: (§1)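 Aliquots of K562 cells (2×10^6 cells/mL) treated with 10 μM compound for 30 min were heated for 3 min over 48°C-58°C. After pooling and extraction in PBS with 0.5% NP-40 at 4°C, soluble protein from a 21,000xg, 90 min spin was quantified by TMTpro 16plex LC-MS/MS with channel sums equalised. Thermal stability is expressed against control samples, from duplicates, as a log2 fold change.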

By UniProt entry, the sequences of proteins in these tests, tags left out. Where a name states a change or a piece, a line headed by the entry shows the natural chain unless it says otherwise.
UniProt O43683: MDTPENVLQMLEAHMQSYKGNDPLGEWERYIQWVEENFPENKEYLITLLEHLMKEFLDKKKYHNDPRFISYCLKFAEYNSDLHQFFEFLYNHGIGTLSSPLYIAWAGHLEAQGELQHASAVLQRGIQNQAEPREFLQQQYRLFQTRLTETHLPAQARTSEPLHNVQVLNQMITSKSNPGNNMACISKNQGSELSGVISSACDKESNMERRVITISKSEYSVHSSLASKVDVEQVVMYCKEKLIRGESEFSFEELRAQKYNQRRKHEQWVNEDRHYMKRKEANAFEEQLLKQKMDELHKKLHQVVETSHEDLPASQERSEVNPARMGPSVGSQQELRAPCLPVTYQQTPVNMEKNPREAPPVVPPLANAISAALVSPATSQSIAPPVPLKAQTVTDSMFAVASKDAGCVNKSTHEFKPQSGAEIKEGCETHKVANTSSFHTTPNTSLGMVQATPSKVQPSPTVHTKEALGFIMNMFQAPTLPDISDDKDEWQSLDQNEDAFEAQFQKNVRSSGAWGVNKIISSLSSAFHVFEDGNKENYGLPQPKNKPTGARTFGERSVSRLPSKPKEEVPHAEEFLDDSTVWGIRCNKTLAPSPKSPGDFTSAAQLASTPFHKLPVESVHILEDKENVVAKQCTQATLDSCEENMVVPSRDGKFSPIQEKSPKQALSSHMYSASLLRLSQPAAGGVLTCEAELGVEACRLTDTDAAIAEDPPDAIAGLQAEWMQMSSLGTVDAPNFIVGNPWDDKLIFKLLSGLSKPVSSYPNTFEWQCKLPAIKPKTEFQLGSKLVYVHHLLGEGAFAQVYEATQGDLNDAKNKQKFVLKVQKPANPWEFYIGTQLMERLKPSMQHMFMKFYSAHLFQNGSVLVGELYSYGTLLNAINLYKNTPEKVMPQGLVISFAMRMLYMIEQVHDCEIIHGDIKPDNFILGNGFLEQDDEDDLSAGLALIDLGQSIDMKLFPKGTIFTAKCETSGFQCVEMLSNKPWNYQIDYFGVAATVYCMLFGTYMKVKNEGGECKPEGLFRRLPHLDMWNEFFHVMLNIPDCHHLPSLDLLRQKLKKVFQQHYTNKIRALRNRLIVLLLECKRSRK
UniProt Q9Y2G2: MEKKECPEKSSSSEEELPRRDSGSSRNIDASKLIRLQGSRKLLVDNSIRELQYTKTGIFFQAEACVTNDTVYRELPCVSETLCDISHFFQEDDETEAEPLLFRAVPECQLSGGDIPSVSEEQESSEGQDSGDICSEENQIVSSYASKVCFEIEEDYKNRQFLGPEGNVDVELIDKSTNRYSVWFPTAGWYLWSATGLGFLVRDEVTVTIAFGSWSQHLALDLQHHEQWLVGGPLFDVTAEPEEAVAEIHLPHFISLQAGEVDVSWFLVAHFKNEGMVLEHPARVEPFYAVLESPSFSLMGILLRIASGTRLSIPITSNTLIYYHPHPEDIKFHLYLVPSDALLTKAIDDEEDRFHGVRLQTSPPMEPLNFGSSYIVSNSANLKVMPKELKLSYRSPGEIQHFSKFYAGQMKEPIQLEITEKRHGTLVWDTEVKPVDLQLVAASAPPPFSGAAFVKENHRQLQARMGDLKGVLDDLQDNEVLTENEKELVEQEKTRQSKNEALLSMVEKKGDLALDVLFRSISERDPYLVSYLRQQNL
UniProt O43684, whole entry, looked up: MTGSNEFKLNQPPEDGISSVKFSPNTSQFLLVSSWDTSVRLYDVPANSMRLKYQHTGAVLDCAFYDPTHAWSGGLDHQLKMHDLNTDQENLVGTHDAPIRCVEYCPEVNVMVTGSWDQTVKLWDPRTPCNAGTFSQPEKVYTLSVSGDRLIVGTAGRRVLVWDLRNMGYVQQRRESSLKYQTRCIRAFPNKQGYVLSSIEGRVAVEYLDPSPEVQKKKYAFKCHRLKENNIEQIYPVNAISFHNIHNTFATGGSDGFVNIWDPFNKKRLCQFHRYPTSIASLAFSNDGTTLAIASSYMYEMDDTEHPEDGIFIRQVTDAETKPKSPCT
UniProt Q8NDD1: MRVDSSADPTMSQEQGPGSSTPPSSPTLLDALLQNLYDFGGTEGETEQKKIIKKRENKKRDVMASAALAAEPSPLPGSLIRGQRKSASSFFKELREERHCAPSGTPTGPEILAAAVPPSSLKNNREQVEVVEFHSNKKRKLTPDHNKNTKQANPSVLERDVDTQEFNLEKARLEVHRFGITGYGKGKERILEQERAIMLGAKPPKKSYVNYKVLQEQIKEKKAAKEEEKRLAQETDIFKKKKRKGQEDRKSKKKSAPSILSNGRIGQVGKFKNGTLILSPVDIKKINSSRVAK
UniProt Q8TCD1: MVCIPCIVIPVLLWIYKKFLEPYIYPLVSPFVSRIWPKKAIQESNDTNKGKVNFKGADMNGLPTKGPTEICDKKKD
UniProt Q8IXQ3: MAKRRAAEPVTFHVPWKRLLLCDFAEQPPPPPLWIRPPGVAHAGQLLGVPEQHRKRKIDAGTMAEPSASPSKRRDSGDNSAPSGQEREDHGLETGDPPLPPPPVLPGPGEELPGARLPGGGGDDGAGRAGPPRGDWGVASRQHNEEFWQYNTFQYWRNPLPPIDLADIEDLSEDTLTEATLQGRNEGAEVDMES
UniProt Q9NX04: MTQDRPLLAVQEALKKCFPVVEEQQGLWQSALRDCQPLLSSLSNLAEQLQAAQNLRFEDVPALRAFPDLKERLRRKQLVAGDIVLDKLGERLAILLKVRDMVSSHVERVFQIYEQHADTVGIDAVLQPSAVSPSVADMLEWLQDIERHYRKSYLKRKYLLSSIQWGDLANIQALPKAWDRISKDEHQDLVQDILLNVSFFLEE
UniProt Q8N5I9: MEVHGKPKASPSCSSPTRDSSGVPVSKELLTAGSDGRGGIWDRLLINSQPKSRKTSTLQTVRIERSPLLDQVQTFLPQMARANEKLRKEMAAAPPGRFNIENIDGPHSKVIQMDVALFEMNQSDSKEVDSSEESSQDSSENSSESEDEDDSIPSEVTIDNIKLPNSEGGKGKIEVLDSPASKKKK
UniProt Q7L1Q6: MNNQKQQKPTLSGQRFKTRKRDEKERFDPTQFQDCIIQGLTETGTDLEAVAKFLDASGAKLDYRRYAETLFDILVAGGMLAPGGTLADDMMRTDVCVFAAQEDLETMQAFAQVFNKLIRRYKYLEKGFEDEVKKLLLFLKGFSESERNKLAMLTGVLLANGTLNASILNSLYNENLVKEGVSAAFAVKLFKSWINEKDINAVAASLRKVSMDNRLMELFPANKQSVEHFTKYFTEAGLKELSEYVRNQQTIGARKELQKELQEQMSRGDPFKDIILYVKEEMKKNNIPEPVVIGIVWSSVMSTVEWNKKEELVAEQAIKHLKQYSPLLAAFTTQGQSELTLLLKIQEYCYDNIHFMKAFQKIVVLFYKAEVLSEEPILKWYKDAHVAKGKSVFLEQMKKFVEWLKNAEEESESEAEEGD
UniProt Q9HAS0: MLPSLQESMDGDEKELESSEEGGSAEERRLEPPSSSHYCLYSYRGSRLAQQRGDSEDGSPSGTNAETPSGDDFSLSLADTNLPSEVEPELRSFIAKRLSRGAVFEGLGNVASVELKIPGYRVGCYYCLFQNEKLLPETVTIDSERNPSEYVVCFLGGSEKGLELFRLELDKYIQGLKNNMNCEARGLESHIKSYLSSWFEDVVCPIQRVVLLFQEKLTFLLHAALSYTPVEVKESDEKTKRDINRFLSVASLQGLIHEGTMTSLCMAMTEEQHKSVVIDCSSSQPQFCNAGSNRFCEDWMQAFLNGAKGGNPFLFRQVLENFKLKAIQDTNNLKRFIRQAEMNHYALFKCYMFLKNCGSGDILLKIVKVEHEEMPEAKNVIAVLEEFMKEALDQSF
UniProt Q13901: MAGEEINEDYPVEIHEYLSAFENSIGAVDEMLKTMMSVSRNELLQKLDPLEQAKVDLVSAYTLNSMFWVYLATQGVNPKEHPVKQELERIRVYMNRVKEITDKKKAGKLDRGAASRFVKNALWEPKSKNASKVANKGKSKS
UniProt P47756, whole entry, looked up: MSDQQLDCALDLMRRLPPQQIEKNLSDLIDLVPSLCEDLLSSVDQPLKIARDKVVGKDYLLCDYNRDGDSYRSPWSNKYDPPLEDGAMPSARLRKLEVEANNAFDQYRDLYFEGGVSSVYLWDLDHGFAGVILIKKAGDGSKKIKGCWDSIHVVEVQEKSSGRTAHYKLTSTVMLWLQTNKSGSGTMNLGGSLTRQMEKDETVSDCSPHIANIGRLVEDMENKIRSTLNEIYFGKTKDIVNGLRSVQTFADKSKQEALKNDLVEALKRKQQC
UniProt Q9UFG5: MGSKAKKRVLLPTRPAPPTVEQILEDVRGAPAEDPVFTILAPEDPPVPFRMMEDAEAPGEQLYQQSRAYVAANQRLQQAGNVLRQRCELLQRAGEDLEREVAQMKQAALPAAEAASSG
UniProt O14523: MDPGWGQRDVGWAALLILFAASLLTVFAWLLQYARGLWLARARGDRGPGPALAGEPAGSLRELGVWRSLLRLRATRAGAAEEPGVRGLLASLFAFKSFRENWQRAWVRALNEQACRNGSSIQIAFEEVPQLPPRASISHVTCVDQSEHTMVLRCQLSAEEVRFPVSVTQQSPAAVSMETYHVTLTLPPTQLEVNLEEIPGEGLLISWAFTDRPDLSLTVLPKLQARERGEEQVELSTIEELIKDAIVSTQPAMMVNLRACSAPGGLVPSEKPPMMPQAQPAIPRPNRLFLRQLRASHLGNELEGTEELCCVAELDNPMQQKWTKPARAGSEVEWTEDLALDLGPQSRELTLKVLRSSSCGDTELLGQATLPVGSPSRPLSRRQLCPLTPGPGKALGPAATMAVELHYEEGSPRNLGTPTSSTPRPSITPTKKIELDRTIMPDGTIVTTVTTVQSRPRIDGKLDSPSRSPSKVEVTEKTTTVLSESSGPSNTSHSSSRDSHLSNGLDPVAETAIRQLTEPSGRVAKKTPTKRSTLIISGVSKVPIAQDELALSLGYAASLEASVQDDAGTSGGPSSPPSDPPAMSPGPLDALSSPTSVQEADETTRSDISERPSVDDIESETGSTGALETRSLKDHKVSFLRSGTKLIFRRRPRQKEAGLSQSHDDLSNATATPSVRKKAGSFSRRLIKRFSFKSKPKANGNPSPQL
UniProt Q5T6V5: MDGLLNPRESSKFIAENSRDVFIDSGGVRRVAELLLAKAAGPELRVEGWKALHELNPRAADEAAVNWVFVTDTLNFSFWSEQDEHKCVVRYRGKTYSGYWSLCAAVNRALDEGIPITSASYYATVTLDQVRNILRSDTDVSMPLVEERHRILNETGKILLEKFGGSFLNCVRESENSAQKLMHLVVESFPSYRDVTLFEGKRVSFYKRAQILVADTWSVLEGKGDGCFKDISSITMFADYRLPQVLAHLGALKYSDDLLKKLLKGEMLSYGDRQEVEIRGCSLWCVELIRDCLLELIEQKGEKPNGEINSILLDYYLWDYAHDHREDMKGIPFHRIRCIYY
UniProt Q86YS7: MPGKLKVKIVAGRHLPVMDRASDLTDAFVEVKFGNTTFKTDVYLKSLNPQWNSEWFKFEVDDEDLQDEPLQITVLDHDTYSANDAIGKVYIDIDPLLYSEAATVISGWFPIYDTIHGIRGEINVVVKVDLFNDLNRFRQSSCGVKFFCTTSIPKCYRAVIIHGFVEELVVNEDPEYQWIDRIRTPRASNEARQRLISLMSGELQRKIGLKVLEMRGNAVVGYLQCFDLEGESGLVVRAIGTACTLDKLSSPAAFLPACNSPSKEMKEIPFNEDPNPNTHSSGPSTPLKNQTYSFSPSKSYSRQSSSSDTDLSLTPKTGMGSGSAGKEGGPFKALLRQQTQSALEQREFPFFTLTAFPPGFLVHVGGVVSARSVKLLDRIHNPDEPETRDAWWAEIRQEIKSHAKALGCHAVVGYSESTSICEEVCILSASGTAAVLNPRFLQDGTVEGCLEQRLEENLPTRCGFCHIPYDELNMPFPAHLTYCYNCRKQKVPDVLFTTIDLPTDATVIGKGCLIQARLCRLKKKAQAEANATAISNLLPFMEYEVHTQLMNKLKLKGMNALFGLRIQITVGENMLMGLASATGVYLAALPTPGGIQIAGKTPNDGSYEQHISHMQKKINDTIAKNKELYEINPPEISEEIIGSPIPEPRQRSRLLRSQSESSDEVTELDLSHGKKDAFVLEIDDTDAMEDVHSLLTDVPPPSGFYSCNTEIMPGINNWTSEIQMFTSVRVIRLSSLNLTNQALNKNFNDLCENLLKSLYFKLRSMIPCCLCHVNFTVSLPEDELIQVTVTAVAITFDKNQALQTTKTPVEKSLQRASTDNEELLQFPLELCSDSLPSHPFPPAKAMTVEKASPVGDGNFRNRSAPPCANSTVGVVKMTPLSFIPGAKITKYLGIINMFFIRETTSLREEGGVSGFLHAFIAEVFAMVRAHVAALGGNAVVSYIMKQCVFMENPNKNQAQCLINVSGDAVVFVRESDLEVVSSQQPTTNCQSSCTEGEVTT
UniProt P35219: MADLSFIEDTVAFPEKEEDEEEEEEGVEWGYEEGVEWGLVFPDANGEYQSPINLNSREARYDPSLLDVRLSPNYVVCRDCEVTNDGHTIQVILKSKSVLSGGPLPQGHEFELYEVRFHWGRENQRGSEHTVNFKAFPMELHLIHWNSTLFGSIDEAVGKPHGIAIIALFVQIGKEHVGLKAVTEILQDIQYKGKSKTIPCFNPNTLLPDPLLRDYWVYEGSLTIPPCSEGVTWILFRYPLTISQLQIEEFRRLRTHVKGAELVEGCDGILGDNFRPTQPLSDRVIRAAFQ

[2] = compound: NC(=O)c1cnc(N[C@@H]2CCCC[C@@H]2N)nc1Nc1cccc(-n2nccn2)c1
Procedure, shortened: as §1

[3] = compound: NC1(c2ccc(-c3nc4ccn5c(=O)[nH]nc5c4cc3-c3ccccc3)cc2)CCC1
Procedure, shortened: as §1

[4] = compound: NCC(=O)Nc1ccc(-n2nc(C(F)(F)F)cc2-c2ccc3c(ccc4ccccc43)c2)cc1
Procedure, shortened: as §1

entinostat = compound: Nc1ccccc1NC(=O)c1ccc(CNC(=O)OCc2cccnc2)cc1 [entinostat]
Procedure, shortened: as §1

vorinostat = compound: O=C(CCCCCCC(=O)Nc1ccccc1)NO [vorinostat]
Procedure, shortened: as §1

citarinostat = compound: O=C(CCCCCCNC(=O)c1cnc(N(c2ccccc2)c2ccccc2Cl)nc1)NO [citarinostat]
Procedure, shortened: as §1

silmitasertib = compound: O=C(O)c1ccc2c(c1)nc(Nc1cccc(Cl)c1)c1ccncc12 [silmitasertib]
Procedure, shortened: as §1

[5] = compound: O=C1NC(=O)C(c2cnc3ccccn23)=C1c1cn2c3c(cc(F)cc13)CN(C(=O)N1CCCCC1)CC2
Procedure, shortened: as §1

[6] = compound: c1cc(OCCN2CCCCC2)cc(-c2n[nH]c3ccc(-c4nnc[nH]4)cc23)c1
Procedure, shortened: as §1

Target	log2 fold change [1]	log2 fold change [2]	log2 fold change [3]	log2 fold change [4]	log2 fold change (entinostat)	log2 fold change (vorinostat)	log2 fold change (citarinostat)	log2 fold change (silmitasertib)	log2 fold change [5]	log2 fold change [6]
C1orf50 (UniProt Q9BV19)	inactive: 0.054	inactive: 0.058	inactive: -0.015	inactive: -0.098	inactive: -0.006	inactive: 0	inactive: -0.033	inactive: -0.008	inactive: -0.018	inactive: -0.028
BUB1 (UniProt O43683)	inactive: -0.09	inactive: -0.192	inactive: -0.142	inactive: -0.202	inactive: 0.002	inactive: -0.018	inactive: -0.069	inactive: 0.002	inactive: -0.044	inactive: -0.003
CARD8 isoform 5 (UniProt Q9Y2G2)	inactive: 0.052	inactive: -0.024	inactive: 0.15	inactive: 0.047	inactive: 0.038	inactive: -0.006	inactive: -0.09	inactive: 0.162	inactive: -0.08	inactive: -0.092
BUB3 (UniProt O43684)	inactive: -0.008	inactive: -0.062	inactive: -0.02	inactive: -0.021	inactive: -0.017	inactive: 0.01	inactive: 0.01	inactive: -0.018	inactive: -0.002	inactive: 0.003
C12orf29 (UniProt Q8N999)	inactive: -0.129	inactive: -0.077	inactive: -0.038	inactive: -0.055	inactive: -0.034	inactive: -0.036	inactive: 0.055	inactive: 0.037	inactive: -0.064	inactive: -0.039
C1QBP (UniProt Q07021)	inactive: -0.013	inactive: -0.017	inactive: 0.042	inactive: -0.011	inactive: -0.003	inactive: -0.001	inactive: -0.046	inactive: -0.059	inactive: -0.075	inactive: 0.023
C1orf131 isoform 5 (UniProt Q8NDD1)	inactive: 0.044	inactive: 0.053	inactive: 0.235	inactive: 0.103	inactive: -0.081	inactive: 0	inactive: -0.045	inactive: 0.17	inactive: 0.151	inactive: -0.178
C18orf32 (UniProt Q8TCD1)	inactive: -0.014	inactive: 0.049	inactive: 0.037	inactive: -0.101	inactive: 0.018	inactive: -0.171	inactive: -0.003	inactive: 0.004	inactive: -0.108	inactive: -0.019
C9orf40 (UniProt Q8IXQ3)	inactive: -0.117	inactive: 0.1	inactive: 0.014	inactive: 0.085	inactive: 0.017	inactive: 0.033	inactive: 0.023	inactive: 0.016	inactive: -0.008	inactive: -0.009
C1orf109 (UniProt Q9NX04)	inactive: 0.044	inactive: -0.037	inactive: -0.004	inactive: -0.024	inactive: -0.063	inactive: 0.083	inactive: -0.02	inactive: 0.042	inactive: -0.108	inactive: -0.024
C12orf45 (UniProt Q8N5I9)	inactive: 0.025	inactive: -0.003	inactive: -0.02	inactive: 0.043	inactive: -0.007	inactive: -0.044	inactive: 0.033	inactive: 0.036	inactive: -0.038	inactive: -0.001
C3 (UniProt P01024)	inactive: -0.042	inactive: 0.015	inactive: 0.168	inactive: 0.056	inactive: -0.024	inactive: 0.083	inactive: -0.069	inactive: 0.201	inactive: 0.096	inactive: 0.417
BZW1 isoform 3 (UniProt Q7L1Q6)	inactive: 0.071	inactive: -0.054	inactive: -0.246	inactive: -0.093	inactive: 0.165	inactive: 0.209	inactive: 0.075	inactive: 0.02	inactive: 0.019	inactive: -0.081
C17orf75 (UniProt Q9HAS0)	inactive: 0	inactive: -0.041	inactive: -0.053	inactive: -0.093	inactive: 0.035	inactive: 0.076	inactive: -0.021	inactive: 0.048	inactive: 0.04	inactive: -0.05
CAMSAP1 isoform 3 (UniProt Q5T5Y3)	inactive: 0.124	inactive: -0.048	inactive: -0.172	active: -0.466	inactive: -0.29	inactive: -0.078	inactive: 0.045	inactive: 0.064	inactive: -0.028	inactive: -0.013
C11orf98 (UniProt E9PRG8)	inactive: 0.004	inactive: 0.043	inactive: 0.257	inactive: 0.102	inactive: -0.082	inactive: -0.032	inactive: -0.069	inactive: 0.151	inactive: 0.222	inactive: -0.066
BZW2 (UniProt Q9Y6E2)	inactive: 0.019	inactive: -0.055	inactive: -0.225	inactive: -0.066	inactive: 0.047	inactive: -0.003	inactive: 0.044	inactive: -0.001	inactive: -0.044	inactive: -0.069
CAPN1 (UniProt P07384)	inactive: 0.058	inactive: 0.056	inactive: 0.014	inactive: 0.098	inactive: -0.029	inactive: -0.012	inactive: 0.006	inactive: -0.016	inactive: -0.03	inactive: 0.017
C1D (UniProt Q13901)	inactive: 0.187	active: 0.322	inactive: 0	inactive: 0.033	inactive: -0.012	inactive: 0.116	inactive: 0.067	inactive: 0.072	inactive: 0.003	inactive: 0.008
BTF3L4 (UniProt Q96K17)	inactive: 0.043	inactive: 0.053	inactive: 0.09	inactive: 0.054	inactive: -0.027	inactive: 0.008	inactive: 0.031	inactive: -0.031	inactive: 0.028	inactive: -0.028
CAPZB isoform 2 (UniProt P47756)	inactive: 0	inactive: 0.007	inactive: -0.005	inactive: -0.04	inactive: -0.022	inactive: -0.027	inactive: -0.018	inactive: 0.017	inactive: -0.024	inactive: 0.036
C19orf25 (UniProt Q9UFG5)	inactive: -0.1	inactive: 0.017	inactive: 0.052	inactive: -0.127	inactive: 0.014	inactive: -0.219	inactive: 0.01	inactive: -0.034	inactive: 0.073	inactive: 0.138
C2CD2L (UniProt O14523)	inactive: 0	inactive: -0.108	inactive: -0.049	inactive: -0.022	inactive: -0.055	inactive: -0.033	inactive: -0.01	inactive: 0.006	inactive: -0.052	inactive: -0.033
C9orf64 (UniProt Q5T6V5)	inactive: 0	inactive: -0.155	inactive: -0.338	inactive: -0.02	inactive: 0.088	inactive: 0.167	inactive: 0.064	inactive: 0.037	inactive: 0.012	inactive: -0.106
C2CD5 isoform 4 (UniProt Q86YS7)	inactive: -0.111	inactive: -0.013	inactive: -0.099	inactive: 0.041	inactive: 0.003	inactive: 0.01	inactive: -0.033	inactive: -0.031	inactive: -0.029	inactive: -0.014
CA8 (UniProt P35219)	inactive: 0.035	inactive: -0.069	inactive: -0.167	inactive: -0.058	inactive: 0.049	inactive: 0.025	inactive: 0.108	inactive: 0.029	inactive: -0.142	inactive: -0.027
C11orf68 (UniProt Q9H3H3)	inactive: -0.004	inactive: -0.033	inactive: -0.019	inactive: -0.041	inactive: -0.015	inactive: 0.024	inactive: 0.029	inactive: -0.026	inactive: -0.065	inactive: 0.028

An excerpt from above, limited to log2 fold change [2] and log2 fold change [5].

| Target | log2 fold change [2] | log2 fold change [5] |
| --- | --- | --- |
| BUB1 (UniProt O43683) | inactive: -0.192 | inactive: -0.044 |
| CAMSAP1 isoform 3 (UniProt Q5T5Y3) | inactive: -0.048 | inactive: -0.028 |

Reference: the supplement of paper PMC10849652
